Experimental data: article PMC7251106
These are yes or no findings as the source states them, for the method shown. In cells and extracts the contact can be indirect. Some entries that bind do so weakly or less than the wild type.

Chains of the proteins cited; added tags and fusions are not shown.
UniProt P48681: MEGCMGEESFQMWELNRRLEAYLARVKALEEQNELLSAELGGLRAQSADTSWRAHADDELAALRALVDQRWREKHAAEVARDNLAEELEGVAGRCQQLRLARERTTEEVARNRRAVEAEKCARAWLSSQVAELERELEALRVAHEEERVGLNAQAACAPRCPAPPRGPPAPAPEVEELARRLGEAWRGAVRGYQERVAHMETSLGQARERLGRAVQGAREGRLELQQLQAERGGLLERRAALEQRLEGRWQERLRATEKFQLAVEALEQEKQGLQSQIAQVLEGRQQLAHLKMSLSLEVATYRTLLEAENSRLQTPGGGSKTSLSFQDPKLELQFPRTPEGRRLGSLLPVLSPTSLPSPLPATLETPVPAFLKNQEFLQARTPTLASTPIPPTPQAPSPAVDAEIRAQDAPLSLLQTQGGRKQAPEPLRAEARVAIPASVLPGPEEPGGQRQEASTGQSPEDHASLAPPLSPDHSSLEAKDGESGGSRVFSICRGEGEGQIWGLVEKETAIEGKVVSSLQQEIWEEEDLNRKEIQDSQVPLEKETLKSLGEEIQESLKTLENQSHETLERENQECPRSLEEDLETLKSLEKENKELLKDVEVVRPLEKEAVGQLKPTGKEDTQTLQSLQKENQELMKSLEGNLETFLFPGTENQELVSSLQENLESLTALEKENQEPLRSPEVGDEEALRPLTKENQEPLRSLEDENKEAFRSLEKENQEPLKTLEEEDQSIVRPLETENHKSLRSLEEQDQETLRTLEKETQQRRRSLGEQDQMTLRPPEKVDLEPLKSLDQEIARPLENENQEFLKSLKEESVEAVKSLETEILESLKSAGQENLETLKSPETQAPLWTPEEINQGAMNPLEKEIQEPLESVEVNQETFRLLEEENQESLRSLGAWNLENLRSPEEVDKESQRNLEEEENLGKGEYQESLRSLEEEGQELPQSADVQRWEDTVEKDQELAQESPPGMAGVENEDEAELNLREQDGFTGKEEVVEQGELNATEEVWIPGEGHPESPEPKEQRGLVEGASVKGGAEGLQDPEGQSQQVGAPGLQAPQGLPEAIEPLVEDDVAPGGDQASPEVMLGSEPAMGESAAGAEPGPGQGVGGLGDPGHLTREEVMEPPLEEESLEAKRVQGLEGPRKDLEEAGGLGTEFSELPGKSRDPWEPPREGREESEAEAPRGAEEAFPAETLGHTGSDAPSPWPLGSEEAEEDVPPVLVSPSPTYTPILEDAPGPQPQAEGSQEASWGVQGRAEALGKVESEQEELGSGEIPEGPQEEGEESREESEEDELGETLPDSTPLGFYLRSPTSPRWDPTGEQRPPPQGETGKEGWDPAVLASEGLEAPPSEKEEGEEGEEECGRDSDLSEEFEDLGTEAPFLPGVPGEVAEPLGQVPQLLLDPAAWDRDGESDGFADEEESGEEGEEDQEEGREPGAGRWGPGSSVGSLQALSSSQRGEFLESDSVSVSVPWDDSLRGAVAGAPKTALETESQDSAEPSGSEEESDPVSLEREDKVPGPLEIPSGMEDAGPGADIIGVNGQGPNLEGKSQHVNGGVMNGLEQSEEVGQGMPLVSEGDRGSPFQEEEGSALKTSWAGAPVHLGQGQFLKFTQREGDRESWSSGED

T1: Vascular endothelial (VE)-cadherin (human (endogenous in HUVEC)) (UniProt P33151)
T1 sequence: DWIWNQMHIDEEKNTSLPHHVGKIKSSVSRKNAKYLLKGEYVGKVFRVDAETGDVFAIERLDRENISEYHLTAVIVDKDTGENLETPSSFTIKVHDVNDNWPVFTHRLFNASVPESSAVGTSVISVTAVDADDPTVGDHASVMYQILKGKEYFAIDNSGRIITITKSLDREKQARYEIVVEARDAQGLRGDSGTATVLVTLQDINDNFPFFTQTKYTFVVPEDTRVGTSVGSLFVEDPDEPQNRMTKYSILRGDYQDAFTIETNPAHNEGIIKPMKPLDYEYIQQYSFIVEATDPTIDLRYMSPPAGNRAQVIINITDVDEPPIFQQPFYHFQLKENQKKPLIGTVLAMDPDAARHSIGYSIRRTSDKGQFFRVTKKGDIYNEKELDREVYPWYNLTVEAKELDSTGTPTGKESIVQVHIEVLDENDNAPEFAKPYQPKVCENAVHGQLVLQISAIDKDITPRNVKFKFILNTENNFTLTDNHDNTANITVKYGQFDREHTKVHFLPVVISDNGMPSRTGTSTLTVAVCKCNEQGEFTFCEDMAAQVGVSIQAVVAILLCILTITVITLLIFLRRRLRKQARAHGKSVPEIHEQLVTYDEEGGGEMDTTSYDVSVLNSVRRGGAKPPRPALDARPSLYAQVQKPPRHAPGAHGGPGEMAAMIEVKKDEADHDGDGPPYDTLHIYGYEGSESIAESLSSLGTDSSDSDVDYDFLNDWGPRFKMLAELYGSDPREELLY


Columns and labels:
[1] = target: T1, Vascular endothelial (VE)-cadherin (human (endogenous in HUVEC)); assay: proximity ligation; Duolink PLA on fixed, permeabilised HUVECs treated with ctr or anti-LASSIE GapmeR; PLA events counted per image
[2] = target: nestin (human (endogenous in HUVEC)) (UniProt P48681); assay: co-IP; HUVEC lysate, anti-nestin antibody, VE-cadherin co-precipitated; with or without 100 µg/mL RNase A in the lysis buffer and the IP reaction

binding [1] | binding [2] | Molecule
binds | – | nestin (from UniProt P48681 1-1621)
– | binds | Vascular endothelial (VE)-cadherin (protein, UniProt P33151 48-784) DWIWNQMHIDEEKNTSLPHHVGKIKSSVSRKNAKYLLKGEYVGKVFRVDAETGDVFAIERLDRENISEYHLTAVIVDKDTGENLETPSSFTIKVHDVNDNWPVFTHRLFNASVPESSAVGTSVISVTAVDADDPTVGDHASVMYQILKGKEYFAIDNSGRIITITKSLDREKQARYEIVVEARDAQGLRGDSGTATVLVTLQDINDNFPFFTQTKYTFVVPEDTRVGTSVGSLFVEDPDEPQNRMTKYSILRGDYQDAFTIETNPAHNEGIIKPMKPLDYEYIQQYSFIVEATDPTIDLRYMSPPAGNRAQVIINITDVDEPPIFQQPFYHFQLKENQKKPLIGTVLAMDPDAARHSIGYSIRRTSDKGQFFRVTKKGDIYNEKELDREVYPWYNLTVEAKELDSTGTPTGKESIVQVHIEVLDENDNAPEFAKPYQPKVCENAVHGQLVLQISAIDKDITPRNVKFKFILNTENNFTLTDNHDNTANITVKYGQFDREHTKVHFLPVVISDNGMPSRTGTSTLTVAVCKCNEQGEFTFCEDMAAQVGVSIQAVVAILLCILTITVITLLIFLRRRLRKQARAHGKSVPEIHEQLVTYDEEGGGEMDTTSYDVSVLNSVRRGGAKPPRPALDARPSLYAQVQKPPRHAPGAHGGPGEMAAMIEVKKDEADHDGDGPPYDTLHIYGYEGSESIAESLSSLGTDSSDSDVDYDFLNDWGPRFKMLAELYGSDPREELLY
